Measured values taken from PMC7779639.
Like-named read-outs stand apart in the source and are kept apart here. Results are given in words; binding and its absence hold for the method and conditions named. Binding seen in cells or lysates may run through a third protein. Some binding calls cover weakened binding; strength is not graded here. Where a sequence is shown, tags or fusion partners need not be part of it.

Sequences of proteins named here, by UniProt entry; tags and fusion partners are left off. Residues count along the entry.
UniProt P42260, residues 32-908: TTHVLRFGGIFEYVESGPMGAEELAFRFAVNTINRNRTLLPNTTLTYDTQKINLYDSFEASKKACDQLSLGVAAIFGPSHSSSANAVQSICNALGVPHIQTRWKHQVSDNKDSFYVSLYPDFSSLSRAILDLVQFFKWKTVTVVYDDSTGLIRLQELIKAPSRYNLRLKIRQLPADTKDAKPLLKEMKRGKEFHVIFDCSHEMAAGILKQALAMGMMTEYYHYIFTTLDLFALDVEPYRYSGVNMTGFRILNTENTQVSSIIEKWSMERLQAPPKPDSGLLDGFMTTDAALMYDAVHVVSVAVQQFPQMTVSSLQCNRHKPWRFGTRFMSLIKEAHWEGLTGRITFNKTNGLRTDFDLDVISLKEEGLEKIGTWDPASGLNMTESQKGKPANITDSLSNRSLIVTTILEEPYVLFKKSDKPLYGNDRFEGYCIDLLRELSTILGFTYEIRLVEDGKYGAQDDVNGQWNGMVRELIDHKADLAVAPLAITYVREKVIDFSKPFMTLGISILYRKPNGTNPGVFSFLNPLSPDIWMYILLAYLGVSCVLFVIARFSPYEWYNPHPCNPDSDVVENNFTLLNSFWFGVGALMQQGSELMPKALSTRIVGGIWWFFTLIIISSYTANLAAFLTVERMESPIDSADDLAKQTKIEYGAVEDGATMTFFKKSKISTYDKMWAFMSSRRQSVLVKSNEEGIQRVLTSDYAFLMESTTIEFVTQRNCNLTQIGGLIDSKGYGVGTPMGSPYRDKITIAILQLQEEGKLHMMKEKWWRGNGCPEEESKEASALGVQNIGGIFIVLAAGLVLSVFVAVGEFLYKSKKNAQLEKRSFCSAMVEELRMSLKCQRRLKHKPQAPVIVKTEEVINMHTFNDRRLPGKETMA
UniProt P19490, residues 19-907: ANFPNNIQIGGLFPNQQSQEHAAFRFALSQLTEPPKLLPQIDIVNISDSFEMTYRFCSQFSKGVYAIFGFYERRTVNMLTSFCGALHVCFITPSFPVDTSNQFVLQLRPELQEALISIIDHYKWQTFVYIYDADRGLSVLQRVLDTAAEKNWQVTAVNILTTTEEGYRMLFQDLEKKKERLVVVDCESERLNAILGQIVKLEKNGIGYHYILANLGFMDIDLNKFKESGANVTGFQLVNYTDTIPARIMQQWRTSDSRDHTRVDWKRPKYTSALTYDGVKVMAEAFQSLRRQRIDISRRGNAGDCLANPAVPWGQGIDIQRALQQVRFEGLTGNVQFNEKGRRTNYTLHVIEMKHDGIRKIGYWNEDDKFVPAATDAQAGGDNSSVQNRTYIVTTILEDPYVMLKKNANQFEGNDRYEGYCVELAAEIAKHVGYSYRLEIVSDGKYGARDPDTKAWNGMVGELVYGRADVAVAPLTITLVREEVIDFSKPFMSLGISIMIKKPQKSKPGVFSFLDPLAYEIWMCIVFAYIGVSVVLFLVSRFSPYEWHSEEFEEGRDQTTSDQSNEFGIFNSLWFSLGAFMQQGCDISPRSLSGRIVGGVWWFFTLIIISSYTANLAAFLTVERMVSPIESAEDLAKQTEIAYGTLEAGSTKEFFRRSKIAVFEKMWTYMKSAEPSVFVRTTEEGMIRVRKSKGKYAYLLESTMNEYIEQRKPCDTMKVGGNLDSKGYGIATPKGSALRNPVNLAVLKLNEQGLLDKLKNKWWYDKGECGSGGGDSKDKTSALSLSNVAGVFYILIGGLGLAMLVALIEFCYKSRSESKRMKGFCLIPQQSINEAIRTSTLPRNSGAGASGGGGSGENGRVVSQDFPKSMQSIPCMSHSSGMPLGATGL
UniProt P19491, residues 22-883: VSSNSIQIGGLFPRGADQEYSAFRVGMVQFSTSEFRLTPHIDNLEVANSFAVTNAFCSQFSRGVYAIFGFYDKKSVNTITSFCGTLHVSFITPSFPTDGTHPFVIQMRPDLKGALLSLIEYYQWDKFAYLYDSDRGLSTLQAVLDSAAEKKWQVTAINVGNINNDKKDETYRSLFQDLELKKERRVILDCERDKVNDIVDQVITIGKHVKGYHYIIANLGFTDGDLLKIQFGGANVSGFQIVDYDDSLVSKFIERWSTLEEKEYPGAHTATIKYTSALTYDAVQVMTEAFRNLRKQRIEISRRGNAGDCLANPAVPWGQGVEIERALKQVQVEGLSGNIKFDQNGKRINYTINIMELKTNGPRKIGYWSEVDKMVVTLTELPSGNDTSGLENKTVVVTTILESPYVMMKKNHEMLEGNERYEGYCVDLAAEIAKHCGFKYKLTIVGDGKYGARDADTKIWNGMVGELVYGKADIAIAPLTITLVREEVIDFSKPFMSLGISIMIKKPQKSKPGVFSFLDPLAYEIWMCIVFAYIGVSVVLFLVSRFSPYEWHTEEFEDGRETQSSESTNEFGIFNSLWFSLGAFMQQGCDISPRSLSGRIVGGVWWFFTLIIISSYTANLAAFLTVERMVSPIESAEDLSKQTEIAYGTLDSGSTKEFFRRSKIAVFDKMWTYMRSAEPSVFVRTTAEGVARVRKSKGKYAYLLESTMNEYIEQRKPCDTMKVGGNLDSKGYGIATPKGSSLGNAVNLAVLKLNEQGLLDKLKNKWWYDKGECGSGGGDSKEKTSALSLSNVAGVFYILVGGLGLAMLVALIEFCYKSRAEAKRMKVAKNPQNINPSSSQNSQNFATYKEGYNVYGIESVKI

Legend:
Assay in all cases: co-IP; HEK293T cells co-transfected, harvested 36-48 h later; lysates in Tris-buffered saline pH 7.4 (50 mM Tris-HCl, 150 mM NaCl, 1% NP-40, 1% sodium deoxycholate, 2 mM EDTA), 4°C; immunoprecipitation with HA monoclonal antibodies coupled to agarose beads for 2 h, 4-6 washes, immunoblotting
[1] = molecular target: T1, HA-Clmp (full-length human Clmp, CXADR-like membrane protein) (human) (UniProt Q9H6B4)
T1 sequence: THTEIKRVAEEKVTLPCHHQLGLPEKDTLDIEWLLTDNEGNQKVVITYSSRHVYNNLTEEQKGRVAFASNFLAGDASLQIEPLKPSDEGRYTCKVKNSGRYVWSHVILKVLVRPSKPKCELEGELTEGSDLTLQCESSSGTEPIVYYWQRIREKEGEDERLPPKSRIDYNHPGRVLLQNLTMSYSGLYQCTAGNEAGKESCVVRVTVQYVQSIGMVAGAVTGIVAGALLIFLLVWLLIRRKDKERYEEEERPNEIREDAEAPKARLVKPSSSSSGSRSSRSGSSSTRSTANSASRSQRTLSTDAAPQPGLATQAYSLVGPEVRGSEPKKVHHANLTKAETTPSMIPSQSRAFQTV

[2] = molecular target: T2, Clmp ECD-TM (HA-tagged deletion variant of human Clmp lacking aa 317-373) (human) (UniProt Q9H6B4)
T2 sequence: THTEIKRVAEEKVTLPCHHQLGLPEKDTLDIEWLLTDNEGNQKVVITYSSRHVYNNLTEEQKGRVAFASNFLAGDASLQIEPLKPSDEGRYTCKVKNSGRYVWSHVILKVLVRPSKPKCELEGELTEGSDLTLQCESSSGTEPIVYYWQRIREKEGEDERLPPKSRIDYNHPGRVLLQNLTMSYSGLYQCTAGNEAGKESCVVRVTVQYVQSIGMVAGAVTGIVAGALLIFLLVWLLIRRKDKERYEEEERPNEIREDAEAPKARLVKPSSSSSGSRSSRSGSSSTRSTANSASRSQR

[3] = molecular target: T1, HA-Clmp (full-length human Clmp, CXADR-like membrane protein) (human); remark: listed apart in the source
[4] = molecular target: T2, Clmp ECD-TM (HA-tagged deletion variant of human Clmp lacking aa 317-373) (human); remark: listed apart in the source

Molecule	binding [1]	binding [2]	binding [3]	binding [4]
GluK2 subunit of kainate receptors (from UniProt P42260 32-908)	binds	binds		
GluA1 subunit of AMPA receptors (from UniProt P19490 19-907)	binds	binds		
GluA2 subunit of AMPA receptors (from UniProt P19491 22-883)	binds	binds		
GluK5 subunit of kainate receptors (receptor, UniProt Q63273 15-979) NPSCQVLSSLRMAAILDDQTVCGRGERLALALAREQINGIIEVPAKARVEVDIFELQRDSQYETTDTMCQILPKGVVSVLGPSSSPASASTVSHICGEKEIPHIKVGPEETPRLQYLRFASVSLYPSNEDVSLAVSRILKSFNYPSASLICAKAECLLRLEELVRGFLISKETLSVRMLDDSRDPTPLLKEIRDDKVSTIIIDANASISHLVLRKASELGMTSAFYKYILTTMDFPILHLDGIVEDSSNILGFSMFNTSHPFYPEFVRSLNMSWRENCEASTYPGPALSAALMFDAVHVVVSAVRELNRSQEIGVKPLACTSANIWPHGTSLMNYLRMVEYDGLTGRVEFNSKGQRTNYTLRILEKSRQGHREIGVWYSNRTLAMNATTLDINLSQTLANKTLVVTTILENPYVMRRPNFQALSGNERFEGFCVDMLRELAELLRFRYRLRLVEDGLYGAPEPNGSWTGMVGELINRKADLAVAAFTITAEREKVIDFSKPFMTLGISILYRVHMGRKPGYFSFLDPFSPAVWLFMLLAYLAVSCVLFLAARLSPYEWYNPHPCLRARPHILENQYTLGNSLWFPVGGFMQQGSEIMPRALSTRCVSGVWWAFTLIIISSYTANLAAFLTVQRMEVPVESADDLADQTNIEYGTIHAGSTMTFFQNSRYQTYQRMWNYMQSKQPSVFVKSTEEGIARVLNSRYAFLLESTMNEYHRRLNCNLTQIGGLLDTKGYGIGMPLGSPFRDEITLAILQLQENNRLEILKRKWWEGGRCPKEEDHRAKGLGMENIGGIFVVLICGLIIAVFVAVMEFIWSTRRSAESEEVSVCQEMLQELRHAVSCRKTSRSRRRRRPGGPSRALLSLRAVREMRLSNGKLYSAGAGGDAGAHGGPQRLLDDPGPPGGPRPQAPTPCTHVRVCQECRRIQALRASGAGAPPRGLGTPAEATSPPRPRPGPTGPRELTEHE			binds	binds
